Earlier results, collected in patent US20130316926A1, “METHOD FOR THE MONITORING OF SMOKING CESSATION COMPLIANCE AND RECOVERY, THERAPEUTIC INTERVENTION, AND RISK MANAGEMENT” (Health Diagnostic Laboratory, Inc., priority 2012, published 2013).
At least one structure is not confirmed: it was looked up by name or label, or the drawing left a doubt.

Settings: total NNAL remaining in the body

Question: With CN(CCCC(O)c1cccnc1)N=O (stereo not shown) [Total NNAL, 4-(methylnitrosamino)-1-(3-pyridyl)-1-butanol] as the compound, how does the t½ read?
Answer: 10 days to 3 weeks
